Experimental data as given in PubChem BioAssay AID504834 (National Center for Advancing Translational Sciences (NCATS), 2011).
Hit rate of the full screen: of about 320,000 compounds, about 22,000 (6.9%) were called active. Inconclusive means that the source gave no clear call. Such entries were picked first, then a sample of the others. The call rests on the fitted dose curve; in most records, active means well fitted inhibition curve with a large enough effect; inconclusive means small, poorly fitted or top-dose-only effect, or another doubt; inactive means no such curve, though single readings can be large or run the other way. A potency beside an inconclusive call is a rough fit, not a confirmed value. Where a SMILES comes first, the peptide text is derived from it. The star is where a group is joined. Cbz = O=C(OCc1ccccc1)*

Assay: Primary qHTS for delayed death inhibitors of the malarial parasite plastid, 96 hour incubation
Conditions: P. falciparum luciferase reporter growth; series mostly up to 28.7 µM
In short: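 96 h incubation, 37 C, 5% CO2, of luciferase-reporter P. falciparum-infected RBCs (2% hematocrit, 0.05% parasitemia final) with test compounds; endpoint luminescence.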
Potency means the concentration at half of the fitted maximal effect.

| Compound | Potency |
| --- | --- |
| COc1ccc(-c2noc(-c3ccc4c(c3)OCO4)n2)cc1 | inconclusive: 11.7 µM [inhibitor, single point] |
| CC(C)[C@H](NC(=O)OCc1ccccc1)C(=O)N[C@@H](Cc1c[nH]c2ccccc12)C(=O)O (Cbz-Val-Trp-OH) | inconclusive: 10.4 µM [inhibitor, single point] |
| COc1ccc(C2C(C(=O)c3ccco3)=C(O)C(=O)N2CC2CCCO2)c(OC)c1 (configuration not stated) | inactive |
| CSc1nc(N(C)NC(=O)c2ccccc2)c2ccccc2n1 | inconclusive: 18.5 µM [inhibitor, single point] |
| COc1ccc(N2C(=O)CC(Sc3nc(C)cc(C)c3C#N)C2=O)cc1 (configuration not stated) | inconclusive: 1.31 µM [inhibitor, partial curve, poor fit] |
| CC(=O)NC1(c2ccc(F)cc2)CCN(C(=O)Nc2ccc(F)cc2F)CC1 | inactive |
| COc1ccc(CCn2c(C)cc(C(=O)CN3C(=O)C(=O)N(C4CCCC4)C3=O)c2C)cc1OC | inconclusive: 14.7 µM [inhibitor, partial curve, poor fit] |
| Cc1ccc(N2CC(C(=O)OCC(=O)Nc3ccc(Cl)cc3)CC2=O)cc1 (configuration not stated) | inactive |
| CCOC(=O)N1CCC(NC(=O)CCc2c(C)nc3nc(C)nn3c2C)CC1 | inconclusive: 10.4 µM [inhibitor, partial curve, poor fit] |
| O=C(c1ccc2c(=O)n(Cc3ccco3)c(=S)[nH]c2c1)N1CCN(c2ccccc2)CC1 | active: 11.7 µM |
| CCN(CC)S(=O)(=O)c1ccc2c(c1)nc(SCC(=O)NC1CC1)n2-c1ccccc1OC | inconclusive: 18.5 µM [inhibitor, single point] |
| CCN(CC)CCN(C(=O)c1ccccc1OC)c1nc2ccc(F)cc2s1 | inconclusive: 9.28 µM [inhibitor, partial curve, poor fit] |
| COc1ccc(C(=O)Nc2ccc(NC(=O)c3cccs3)cc2)cc1Cl | inconclusive: 18.5 µM [inhibitor, single point] |
| N#Cc1ccc(S(=O)(=O)N2CCN(C(=O)[C@@H]3CCCN3C(=O)c3cccs3)CC2)cc1 | inconclusive: 18.5 µM [inhibitor, single point] |
| CCN1CCc2c(OCC(=O)Nc3cccc(C)c3)cccc2C1=O | inconclusive: 0.0037 µM [inhibitor, full curve, poor fit] |
| CCCCN(C(=O)CSc1nn(-c2ccc(F)cc2)c(=S)s1)c1c(N)n(CCCC)c(=O)[nH]c1=O | active: 13.1 µM |
| COc1ccc2c(c1)c(C(=O)N/N=C/c1ccc(Cl)cc1)c(C)n2C | inconclusive: 7.38 µM [inhibitor, partial curve] |
